Values from PubChem BioAssay AID1259254 (NCATS, 2017).

- Assay: 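Gene knock-downs that lead to re-replication, shown by excess G2 DNA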 (primary screen)
- System: human HCT116 colorectal cancer cells
- Knock-down reagent: single siRNA against human genes
- Timing: 3 days
- Read-out: 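Nuclei stained with Hoechst and imaged; cell-cycle phase assigned by DNA content; G2 share scaled per plate, non-targeting siRNA 0%, GMNN siRNA 100%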
- Scale: G2 robust z-score and G2 cells, % of GMNN control: higher = more G2 cells, more excess DNA replication; raw share of cells in G2: higher = larger share of cells with G2 DNA content
- Call rule: 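An siRNA counts as active if its G2 robust z-score lies at least 5 MADs above the screen median; here such calls match roughly 38% of GMNN control or more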
The whole screen tested about 59,000 reagents; below is a random part of them. Over the whole deposit, about 1,550 (2.6%) were called active. 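G2 share is only a proxy for re-replication; each gene was hit by three separate siRNAs, and active genes were retested.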 Raw values are not corrected between plates. The numbers tell different reagents against one gene apart. Reagent sequences are not shown. The record does not give: the amount of reagent.

gene	reagent no.	G2 robust z-score	G2 cells, % of GMNN control	raw share of cells in G2 (%)	call
SERPINA11	1	-0.444	-0.158	4.63	inactive
SERPINA11	2	2.74	22.3	12.8	inactive
SERPINA11	3	-0.586	-1.16	5.41	inactive
SH3BGR	1	-1.07	-4.55	3.04	inactive
SH3BGR	2	-0.675	-1.78	3.52	inactive
SH3BGR	3	1.47	13.3	8.17	inactive
PRR21	1	1.39	12.8	7.86	inactive
PRR21	2	1.06	10.4	6.18	inactive
PRR21	3	0.18	4.23	5.25	inactive
GOT2	1	2.85	23	14	inactive
GOT2	2	-1.08	-4.66	3.55	inactive
GOT2	3	0.608	7.25	6.24	inactive
CCKAR	1	1.35	12.5	10.3	inactive
CCKAR	2	0.207	4.43	6.06	inactive
CCKAR	3	-1.01	-4.13	2	inactive
HLX	1	17.6	127	51.2	active
HLX	2	-0.574	-1.07	5.28	inactive
HLX	3	-0.643	-1.55	3.63	inactive
GMPR	1	4.99	38.1	19.1	inactive
GMPR	2	0.457	6.18	7.61	inactive
GMPR	3	-0.717	-2.08	2.92	inactive
NEU1	1	3.12	24.9	11.4	inactive
NEU1	2	-0.843	-2.97	4.21	inactive
NEU1	3	5.11	38.9	20.9	active
ABCB1	1	-0.614	-1.35	4.36	inactive
ABCB1	2	-0.62	-1.39	3.88	inactive
ABCB1	3	-0.937	-3.62	2.41	inactive
CRAMP1	1	-0.66	-1.68	3.69	inactive
CRAMP1	2	-0.522	-0.705	4.12	inactive
CRAMP1	3	-0.939	-3.64	1.88	inactive

Not a retest: an excerpt of the list.
gene	reagent no.	G2 robust z-score	G2 cells, % of GMNN control	raw share of cells in G2 (%)	call
NEU1	1	3.12	24.9	11.4	inactive
NEU1	2	-0.843	-2.97	4.21	inactive
